Reference: the supplement of paper PMC6411743
± gives the standard deviation of the averaged measurements. The entries are a selection whose mix differs from that of the whole data set.

Legend:
Assay in all cases: NP40-soluble protein abundance relative to vehicle (solubility fold change) (ratio); higher = more soluble protein in presence of AMP-PNP
NKIRAS1 = target: T1, NKIRAS1 (UniProt Q9NYS0)
T1 sequence (whole entry): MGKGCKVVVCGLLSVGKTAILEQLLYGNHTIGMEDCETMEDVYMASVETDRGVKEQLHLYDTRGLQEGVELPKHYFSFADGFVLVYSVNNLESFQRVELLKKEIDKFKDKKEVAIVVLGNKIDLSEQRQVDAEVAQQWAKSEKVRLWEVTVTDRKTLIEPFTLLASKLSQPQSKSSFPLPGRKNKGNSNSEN
In short: (§1)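 Jurkat crude lysate (Dounce-homogenised) was treated with eight concentrations from 0.1 to 10 mM for 10 min at room temperature, then 3 min at 37 °C. It was solubilised with 0.8% NP40 and benzonase (60 min, 4 °C) and ultracentrifuged, and the supernatant was TMT-labelled for LC-MS/MS. Intensities were vsn-normalised, and the value is the fold change against the NP40-processed vehicle per replicate, from three independent experiments.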

RBM12 = target: T2, RBM12 (UniProt Q9NTZ6)
T2 sequence (whole entry): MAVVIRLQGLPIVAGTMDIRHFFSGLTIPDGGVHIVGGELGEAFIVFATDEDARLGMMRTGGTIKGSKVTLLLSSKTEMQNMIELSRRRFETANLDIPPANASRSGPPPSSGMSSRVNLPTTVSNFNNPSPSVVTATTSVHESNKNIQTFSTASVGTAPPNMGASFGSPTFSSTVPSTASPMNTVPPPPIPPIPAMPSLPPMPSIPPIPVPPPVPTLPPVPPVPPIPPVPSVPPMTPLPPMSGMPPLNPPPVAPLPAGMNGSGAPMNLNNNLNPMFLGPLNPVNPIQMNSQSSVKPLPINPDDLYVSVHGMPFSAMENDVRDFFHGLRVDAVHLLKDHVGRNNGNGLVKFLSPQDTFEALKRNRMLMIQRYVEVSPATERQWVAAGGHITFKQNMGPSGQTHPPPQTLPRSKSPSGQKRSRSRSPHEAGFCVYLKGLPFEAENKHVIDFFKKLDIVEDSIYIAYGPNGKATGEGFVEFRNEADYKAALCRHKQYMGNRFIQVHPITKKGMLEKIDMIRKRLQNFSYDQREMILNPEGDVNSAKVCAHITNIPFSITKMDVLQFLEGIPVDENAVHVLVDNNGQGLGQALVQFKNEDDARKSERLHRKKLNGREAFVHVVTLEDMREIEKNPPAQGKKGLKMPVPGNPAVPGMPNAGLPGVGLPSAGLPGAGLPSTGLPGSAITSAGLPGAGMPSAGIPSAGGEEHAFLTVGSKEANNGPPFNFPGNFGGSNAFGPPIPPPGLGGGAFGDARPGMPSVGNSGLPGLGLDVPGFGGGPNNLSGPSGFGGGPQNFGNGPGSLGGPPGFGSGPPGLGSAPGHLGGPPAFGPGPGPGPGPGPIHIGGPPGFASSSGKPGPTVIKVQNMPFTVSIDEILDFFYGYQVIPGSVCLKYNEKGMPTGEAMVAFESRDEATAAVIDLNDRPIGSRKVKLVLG
In short: as §1

SACM1L = target: T3, SACM1L (UniProt Q9NTJ5)
T3 sequence (whole entry): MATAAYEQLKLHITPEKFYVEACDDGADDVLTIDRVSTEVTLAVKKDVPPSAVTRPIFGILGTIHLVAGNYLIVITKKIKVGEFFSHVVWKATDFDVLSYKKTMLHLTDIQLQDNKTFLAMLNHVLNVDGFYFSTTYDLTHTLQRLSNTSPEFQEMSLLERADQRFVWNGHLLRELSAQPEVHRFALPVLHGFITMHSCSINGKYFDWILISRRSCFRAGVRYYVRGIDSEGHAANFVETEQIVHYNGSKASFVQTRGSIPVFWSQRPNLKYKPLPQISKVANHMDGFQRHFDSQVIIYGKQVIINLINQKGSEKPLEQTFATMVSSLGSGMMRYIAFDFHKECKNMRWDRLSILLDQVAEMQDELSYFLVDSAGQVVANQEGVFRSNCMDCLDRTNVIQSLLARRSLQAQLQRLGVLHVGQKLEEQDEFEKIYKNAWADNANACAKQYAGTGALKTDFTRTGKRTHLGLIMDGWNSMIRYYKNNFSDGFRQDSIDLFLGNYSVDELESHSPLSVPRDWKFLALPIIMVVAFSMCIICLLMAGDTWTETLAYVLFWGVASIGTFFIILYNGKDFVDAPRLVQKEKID
In short: as §1

TFIP11 = target: T4, TFIP11 (UniProt Q9UBB9)
T4 sequence (whole entry): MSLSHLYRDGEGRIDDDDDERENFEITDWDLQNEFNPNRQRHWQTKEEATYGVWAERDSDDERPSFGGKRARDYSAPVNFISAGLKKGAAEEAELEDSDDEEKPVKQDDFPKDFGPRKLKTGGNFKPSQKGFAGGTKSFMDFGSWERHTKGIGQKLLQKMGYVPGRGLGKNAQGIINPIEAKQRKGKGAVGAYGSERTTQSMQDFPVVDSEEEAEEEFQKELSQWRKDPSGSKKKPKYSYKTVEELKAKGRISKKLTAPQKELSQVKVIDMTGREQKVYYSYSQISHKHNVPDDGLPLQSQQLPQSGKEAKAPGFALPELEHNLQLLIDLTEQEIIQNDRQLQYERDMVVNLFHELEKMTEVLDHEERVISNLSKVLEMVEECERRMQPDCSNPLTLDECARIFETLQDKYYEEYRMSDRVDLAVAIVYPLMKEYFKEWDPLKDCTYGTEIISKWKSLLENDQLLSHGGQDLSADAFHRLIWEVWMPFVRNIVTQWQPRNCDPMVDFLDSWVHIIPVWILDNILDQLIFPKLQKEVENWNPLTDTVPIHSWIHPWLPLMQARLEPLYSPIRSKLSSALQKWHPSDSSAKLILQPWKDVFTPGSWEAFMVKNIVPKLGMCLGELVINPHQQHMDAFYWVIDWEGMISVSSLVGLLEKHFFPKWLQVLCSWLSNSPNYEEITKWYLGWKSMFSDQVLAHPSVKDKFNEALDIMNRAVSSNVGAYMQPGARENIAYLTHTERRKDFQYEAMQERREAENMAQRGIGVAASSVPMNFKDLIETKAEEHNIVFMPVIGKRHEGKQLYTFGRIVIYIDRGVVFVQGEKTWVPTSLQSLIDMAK
In short: as §1

[1] = target: T5, UniProt Q9NQ86-4|E9PBG3 and related entries
T5 sequence (whole entry): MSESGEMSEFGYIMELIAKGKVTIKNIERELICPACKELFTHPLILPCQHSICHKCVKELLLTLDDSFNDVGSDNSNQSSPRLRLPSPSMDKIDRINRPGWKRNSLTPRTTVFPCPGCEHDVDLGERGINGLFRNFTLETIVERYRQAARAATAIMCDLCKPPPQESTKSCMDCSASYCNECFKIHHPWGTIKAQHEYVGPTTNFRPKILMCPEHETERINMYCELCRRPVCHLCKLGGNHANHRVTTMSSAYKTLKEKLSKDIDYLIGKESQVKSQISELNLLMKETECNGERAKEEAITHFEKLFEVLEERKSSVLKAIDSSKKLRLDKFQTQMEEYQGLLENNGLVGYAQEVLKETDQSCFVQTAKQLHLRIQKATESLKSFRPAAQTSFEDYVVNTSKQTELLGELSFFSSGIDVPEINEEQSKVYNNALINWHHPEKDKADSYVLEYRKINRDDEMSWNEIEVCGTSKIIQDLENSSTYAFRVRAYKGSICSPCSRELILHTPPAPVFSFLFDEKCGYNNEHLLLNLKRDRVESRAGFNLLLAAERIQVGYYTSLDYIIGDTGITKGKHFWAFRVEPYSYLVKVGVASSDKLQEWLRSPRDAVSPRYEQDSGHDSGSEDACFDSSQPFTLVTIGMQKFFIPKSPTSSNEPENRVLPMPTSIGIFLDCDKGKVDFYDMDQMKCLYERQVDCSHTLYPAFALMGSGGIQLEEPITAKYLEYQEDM
In short: as §1

SMILES: Nc1ncnc2c1ncn2[C@@H]1O[C@H](COP(=O)(O)OP(=O)(O)NP(=O)(O)O)[C@@H](O)[C@H]1O [adenylyl imidodiphosphate]
- NP40-soluble protein abundance (NKIRAS1; concentration: 2mM): 1.025 ± 0.0079
- NP40-soluble protein abundance (NKIRAS1; concentration: 4mM): 0.981 ± 0.024
- NP40-soluble protein abundance (NKIRAS1; concentration: 6mM): 0.988 ± 0.027
- NP40-soluble protein abundance (NKIRAS1; concentration: 8mM): 1 ± 0.018
- NP40-soluble protein abundance (NKIRAS1; concentration: 10mM): 0.9796 ± 0.0011
- NP40-soluble protein abundance (RBM12; concentration: 1mM): 0.959 ± 0.021
- NP40-soluble protein abundance (RBM12; concentration: 2mM): 0.976 ± 0.048
- NP40-soluble protein abundance (RBM12; concentration: 4mM): 0.976 ± 0.028
- NP40-soluble protein abundance (RBM12; concentration: 6mM): 1.01 ± 0.036
- NP40-soluble protein abundance (RBM12; concentration: 8mM): 0.986 ± 0.036
- NP40-soluble protein abundance (RBM12; concentration: 10mM): 1.011 ± 0.0088
- NP40-soluble protein abundance (SACM1L; concentration: 1mM): 1.01 ± 0.049
- NP40-soluble protein abundance (SACM1L; concentration: 2mM): 0.916 ± 0.062
- NP40-soluble protein abundance (SACM1L; concentration: 4mM): 0.978 ± 0.056
- NP40-soluble protein abundance (SACM1L; concentration: 6mM): 0.937 ± 0.032
- NP40-soluble protein abundance (SACM1L; concentration: 8mM): 0.966 ± 0.035
- NP40-soluble protein abundance (SACM1L; concentration: 10mM): 0.91 ± 0.039
- NP40-soluble protein abundance (TFIP11; concentration: 1mM): 1.01 ± 0.028
- NP40-soluble protein abundance (TFIP11; concentration: 2mM): 1.01 ± 0.033
- NP40-soluble protein abundance (TFIP11; concentration: 4mM): 1.07 ± 0.042
- NP40-soluble protein abundance (TFIP11; concentration: 6mM): 1.08 ± 0.05
- NP40-soluble protein abundance (TFIP11; concentration: 8mM): 1.09 ± 0.015
- NP40-soluble protein abundance (TFIP11; concentration: 10mM): 1.13 ± 0.039
- NP40-soluble protein abundance ([1]; concentration: 1mM): 0.952 ± 0.04
- NP40-soluble protein abundance ([1]; concentration: 2mM): 0.976 ± 0.047
- NP40-soluble protein abundance ([1]; concentration: 4mM): 0.994 ± 0.042
